# Laboratory results reported in the supplement of paper PMC9135407.
# Where “and” joins values, the source holds several entries; their conditions need not be identical. Equal entries are not always repeated. Structures can show the parent of a compound that is named as a salt. ± gives the standard deviation of the averaged measurements. The list shows a part of the results. Plates or batches differ in their baseline, so values are only roughly comparable.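 Culture-activated primary human stellate myofibroblasts, where regained lipid droplets signal inactivation. Value: share of Hoechst-counted cells above a per-plate Bodipy cutoff, in duplicate wells, with DMSO negative and nortriptyline positive controls on each plate. Hits: a control-normalized score above the plate's top-tenth-percentile nortriptyline wells, or one of a plate's three best wells. Final well concentrations are not given.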
# System: primary human hepatic stellate cells (donor 1)
# Assay: percent Bodipy-positive cells; higher = more lipid droplet accumulation
# Conditions: 48 h
# [1] = library stock concentration: 10 mM
# [2] = library stock concentration: 3.33 mM
# [3] = library stock concentration: 80 uM
# [4] = library stock concentration: 400 uM
# [5] = library stock concentration: 2 mM
# [6] = library stock concentration: 1 mM
# [7] = library stock concentration: 7.5 mM
# [8] = library stock concentration: 4.8 mM
compound,measurement,setting,value
Cc1c(NC(C)C)c(=O)n(-c2ccccc2)n1C [Ramifenazone],percent Bodipy-positive cells,[1],42.3 ± 1.1%
Cc1c(NC(C)C)c(=O)n(-c2ccccc2)n1C [Isopyrin hydrochloride],percent Bodipy-positive cells,,7.64 ± 4.7%
O=c1cc(-c2ccc(O)cc2)oc2cc(O[C@@H]3O[C@H](CO)[C@@H](O)[C@H](O)[C@H]3O)cc(O)c12 [Cosmosiin],percent Bodipy-positive cells,[1],50.1 ± 4.5%
COc1cc(N)c(Cl)cc1C(=O)CCC1CCN(CCNS(C)(=O)=O)CC1,percent Bodipy-positive cells,[1],15.9 ± 3.2%
CNCc1ccc(-c2[nH]c3cc(F)cc4c3c2CCNC4=O)cc1,percent Bodipy-positive cells,[2],22.8 ± 3%
CNCc1ccc(-c2[nH]c3cc(F)cc4c3c2CCNC4=O)cc1 [Rucaparib],percent Bodipy-positive cells,[3],34.1 ± 1.1%
same,percent Bodipy-positive cells,[4],46.3 ± 8%
same,percent Bodipy-positive cells,[5],72.9 ± 4.8%
NCCc1cc[nH]n1 [Betazole hydrochloride],percent Bodipy-positive cells,,16.9 ± 0.92%
CCCNC(C)C(=O)Nc1c(C)csc1C(=O)OC (configuration not stated) [Articaine HCl],percent Bodipy-positive cells,[2],8.07 ± 3.4%
same,percent Bodipy-positive cells,[1],26.9 ± 4.8%
CCCNC(C)C(=O)Nc1c(C)csc1C(=O)OC (configuration not stated) [Articaine hydrochloride],percent Bodipy-positive cells,,8.37 ± 2%
CCNC(=O)c1noc(-c2cc(C(C)C)c(O)cc2O)c1-c1ccc(CN2CCOCC2)cc1,percent Bodipy-positive cells,[3],72.4 ± 9.1%
same,percent Bodipy-positive cells,[4],73.8 ± 3.1%
same,percent Bodipy-positive cells,[5],74.9 ± 3.9%
same,percent Bodipy-positive cells,[1],65.7% and 73.4%
"CCCCCCCCCC(=O)OCC(CO)OC(=O)CCCCCCCCC (configuration not stated) [1,2-Didecanoyl-glycerol (10:0)]",percent Bodipy-positive cells,[6],7.93 ± 9.2%
"CCCCCCCCCC(=O)OCC(CO)OC(=O)CCCCCCCCC (configuration not stated) [1,2-Didecanoyl-sn-glycerol]",percent Bodipy-positive cells,[6],8.95 ± 1.3%
"CC(=O)C1=C(O)C=C2Oc3c(C(C)=O)c(O)c(C)c(O)c3C2(C)C1=O (single isomer, unassigned; (+)) [(+)-Usniacin]",percent Bodipy-positive cells,[2],7.67 ± 0.59%
same,percent Bodipy-positive cells,[1],14.4 ± 2.2%
C[C@H](NC[C@H](O)CP(=O)(O)Cc1ccccc1)c1ccc(Cl)c(Cl)c1,percent Bodipy-positive cells,[1],6.77 ± 1.4%
CC(=O)c1cc([N+](=O)[O-])c(Sc2ccc(F)cc2F)s1,percent Bodipy-positive cells,[2],37.4 ± 14%
same,percent Bodipy-positive cells,[1],42.8 ± 14%
"CCCCC/C=C/C=C1/C=CC(=O)[C@@H]1CCCCCCC(=O)O [15-deoxy-.DELTA.12,14-Prostaglandin A1]",percent Bodipy-positive cells,[6],12.25 ± 0.05%
O=C1NC(=O)c2cc(Nc3ccc(F)cc3)c(Nc3ccc(F)cc3)cc21,percent Bodipy-positive cells,[1],9.97 ± 2.3%
Cc1cn([C@H]2C[C@H](N=[N+]=[N-])[C@@H](CO)O2)c(=O)[nH]c1=O [Zidovudine [azt]],percent Bodipy-positive cells,[7],18.9 ± 6.3%
same,percent Bodipy-positive cells,[1],14 ± 6.1%
Cc1cn([C@H]2C[C@H](N=[N+]=[N-])[C@@H](CO)O2)c(=O)[nH]c1=O [3'-azido-3'-deoxythymidine],percent Bodipy-positive cells,[7],9.19 ± 2.2%
"Cc1cn([C@H]2C[C@H](N=[N+]=[N-])[C@@H](CO)O2)c(=O)[nH]c1=O [Zidovudine, AZT]",percent Bodipy-positive cells,,17.5 ± 1.6%
Cc1cn([C@H]2C[C@H](N=[N+]=[N-])[C@@H](CO)O2)c(=O)[nH]c1=O [Zidovudine],percent Bodipy-positive cells,[2],4.66 ± 0.87%
same,percent Bodipy-positive cells,[1],12.2 ± 6.4%
Cc1cn([C@H]2C[C@H](N=[N+]=[N-])[C@@H](CO)O2)c(=O)[nH]c1=O [3'-Azido-3'-deoxythymidine],percent Bodipy-positive cells,[1],45.3 ± 0.52%
Cc1cn([C@H]2C[C@H](N=[N+]=[N-])[C@@H](CO)O2)c(=O)[nH]c1=O,percent Bodipy-positive cells,[1],24.4 ± 7.8%
COc1ccc([C@@H]2Sc3ccccc3N(CCN(C)C)C(=O)[C@@H]2OC(C)=O)cc1 [Diltiazem hydrochloride],percent Bodipy-positive cells,,42.4 ± 4.9%
same,percent Bodipy-positive cells,library stock concentration: 4.4 mM,43 ± 15%
COc1ccc([C@@H]2Sc3ccccc3N(CCN(C)C)C(=O)[C@@H]2OC(C)=O)cc1,percent Bodipy-positive cells,[1],74.8 ± 2%
COc1ccc([C@@H]2Sc3ccccc3N(CCN(C)C)C(=O)[C@@H]2OC(C)=O)cc1 [Diltiazem],percent Bodipy-positive cells,[8],24.5 ± 1.2%
COc1ccc([C@@H]2Sc3ccccc3N(CCN(C)C)C(=O)[C@@H]2OC(C)=O)cc1 [Diltiazem HCl],percent Bodipy-positive cells,[2],13.35 ± 0.049%
same,percent Bodipy-positive cells,[1],55.1 ± 8.3%
CCCCC[C@H](O)/C=C/[C@@H]1[C@@H](CC(=O)CCCCC(=O)O)[C@@H](O)C[C@H]1O [6-keto Prostaglandin F1.alpha.],percent Bodipy-positive cells,[6],13.5 ± 3.5%
CCCCC[C@H](O)/C=C/[C@@H]1[C@@H](CC(=O)CCCCC(=O)O)[C@@H](O)C[C@H]1O [6-Keto-prostaglandin F1a],percent Bodipy-positive cells,[6],16.9 ± 18%
CCCCCCCCCCOc1cc2c(O)c(C(=O)OCC)cnc2cc1OCC [Decoquinate],percent Bodipy-positive cells,[8],11.4 ± 7.3%
COc1ccc2c(c1)C(=O)N(CCc1ccc(S(=O)(=O)NC(=O)NC3CCCCC3)cc1)C(=O)C2(C)C [Gliquidone],percent Bodipy-positive cells,,7.59 ± 1.6%
C=CCc1ccc(O)c(-c2cc(CC=C)ccc2O)c1 [Magnolol],percent Bodipy-positive cells,[2],11.3 ± 9.7%
same,percent Bodipy-positive cells,[1],73.9 ± 14%
CC(=N)NCc1cccc(CN)c1 [1400W dihydrochloride],percent Bodipy-positive cells,[1],8.74 ± 4.8%
NS(=O)(=O)Cc1noc2ccccc12 [Zonisamide],percent Bodipy-positive cells,[2],25.24 ± 0.23%
same,percent Bodipy-positive cells,library stock concentration: 9.4 mM,7.92 ± 2.6%
CC(C)c1cccc(=O)c(O)c1 [Hinokitiol],percent Bodipy-positive cells,library stock concentration: 30.5 mM,38 ± 9.2%
CN(C)CCN(Cc1ccc(Cl)cc1)c1ccccn1 [Chloropyramine hydrochloride],percent Bodipy-positive cells,,34.5 ± 1%
CC(C[N+](C)(C)C)OC(N)=O (configuration not stated) [Urecholine],percent Bodipy-positive cells,[1],31.5 ± 6.4%
CC(C[N+](C)(C)C)OC(N)=O (configuration not stated) [Bethanechol chloride],percent Bodipy-positive cells,,7.71 ± 0.18%
same,percent Bodipy-positive cells,[2],6.04 ± 1.4%
COc1ccc(C[C@H](NC(=O)[C@H](C)NC(=O)CN2CCOCC2)C(=O)N[C@@H](Cc2ccccc2)C(=O)[C@@]2(C)CO2)cc1,percent Bodipy-positive cells,[2],96.1 ± 4.7%
same,percent Bodipy-positive cells,[1],99.29 ± 0.18%
O=C1C(Cl)=C(N2C(=O)CCC2=O)C(=O)c2ccccc21 [MEK Inhibitor II],percent Bodipy-positive cells,[2],40.4 ± 5.8%
CC(C)(C)c1ccc(S(=O)(=O)/C=C/C#N)cc1,percent Bodipy-positive cells,[1],98.1 ± 1.6%
Cc1ccc2nc(NCCN)c3ncc(C)n3c2c1,percent Bodipy-positive cells,[3],7.88 ± 4.8%
same,percent Bodipy-positive cells,[4],7.61 ± 0.32%
same,percent Bodipy-positive cells,[5],9.78 ± 7.7%
same,percent Bodipy-positive cells,[2],38 ± 7.7%
same,percent Bodipy-positive cells,[1],89.2% and 74.5%

# Not a retest: entries from further up.
compound,measurement,setting,value
NS(=O)(=O)Cc1noc2ccccc12 [Zonisamide],percent Bodipy-positive cells,[2],25.24 ± 0.23%
same,percent Bodipy-positive cells,library stock concentration: 9.4 mM,7.92 ± 2.6%
CC(C)c1cccc(=O)c(O)c1 [Hinokitiol],percent Bodipy-positive cells,library stock concentration: 30.5 mM,38 ± 9.2%
CN(C)CCN(Cc1ccc(Cl)cc1)c1ccccn1 [Chloropyramine hydrochloride],percent Bodipy-positive cells,,34.5 ± 1%
